According to the supplement of paper PMC4604168 (melanoma cell lines):
Some of the results follow. Many values rest on one well or one pass, so single values are uncertain.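 The apoptosis fraction was the count of cleaved-PARP antibody-stained nuclei relative to all DNA-stained nuclei, imaged in 1,536-well plates. Screening doses were set so most cells survived, and baseline and induced cleaved-PARP levels vary greatly across cell lines.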

test system: WM451Lu; test: cleaved PARP positive nuclei fraction relative to DMSO control; melanoma cells; higher = more apoptosis; conditions: library dose: low library concentration; 72 h

Structure (SMILES) | cleaved PARP positive nuclei fraction
Cn1c(Nc2ccc(C(F)(F)F)cc2)nc2cc(Oc3ccnc(-c4ncc(C(F)(F)F)[nH]4)c3)ccc21 + CCCCCCCCCCCC1=C(O)C(=O)C=C(O)C1=O [Embelin] (first compound 0.08 µM, partner dose 1.2 µM) | 196%
C=CCn1c(=O)c2cnc(Nc3ccc(N4CCN(C)CC4)cc3)nc2n1-c1cccc(C(C)(C)O)n1 + CC(C)(C)c1cnc(CSc2cnc(NC(=O)C3CCNCC3)s2)o1 [SNS-032] (first compound 0.02 µM, partner dose 0.01 µM) | 25.6%
Cc1nc(Nc2ncc(C(=O)Nc3c(C)cccc3Cl)s2)cc(N2CCN(CCO)CC2)n1 [dasatanib] + CC(C)CCN1c2nc(Nc3cc(F)c(O)c(F)c3)ncc2N(C)C(=O)C1C [BID1870] (first compound 0.004 µM, partner dose 0.2 µM) | 60%
CC1(C)NC(=O)N(c2ccc([N+](=O)[O-])c(C(F)(F)F)c2)C1=O [nilutamide] + CN(C)S(=O)(=O)c1ccc2c(c1)/C(=C/c1cc3c([nH]1)CCCC3)C(=O)N2 [SU6656] (first compound 1 µM, partner dose 0.4 µM) | 325%
CC(=O)c1c(C)c2cnc(Nc3ccc(N4CCNCC4)cn3)nc2n(C2CCCC2)c1=O [palbociclib] + O=C(O)c1ccc(-c2c[nH]c3ncc(-c4ccccc4)cc23)cc1C1CCCC1 [GSK650394] (first compound 0.04 µM, partner dose 0.16 µM) | 81%
OCCn1cc(-c2cnc3nnn(Cc4ccc5ncccc5c4)c3n2)cn1 + Oc1cc(-c2nc(-c3ccccc3)[nH]c2-c2ccncc2)ccc1Cl [L779450] (first compound 1 µM, partner dose 0.2 µM) | 224%
COc1cc(Nc2ncc(F)c(Nc3ccc4c(n3)NC(=O)C(C)(C)O4)n2)cc(OC)c1OC [Tamatinib] + CN(NC(=O)CC(=O)NN(C)C(=S)c1ccccc1)C(=S)c1ccccc1 [STA4783] (first compound 0.4 µM, partner dose 0.006 µM) | 77.4%
Cc1ccc(NC(=O)c2cccc(N(C)C)c2)cc1NC(=O)c1ccc(O)cc1 + CC(C)(C)c1cnc(CSc2cnc(NC(=O)C3CCNCC3)s2)o1 [SNS-032] (first compound 2 µM, partner dose 0.01 µM) | 198%
C[C@]1(c2nc3c(C(N)=O)cccc3[nH]2)CCCN1 [Veliparib] + Cc1ccc(NC(=O)c2cccc(N(C)C)c2)cc1NC(=O)c1ccc(O)cc1 [ZM336372] (first compound 1.4 µM, partner dose 2 µM) | 165%
O=C(CCCCCCC(=O)Nc1ccccc1)NO [vorinostat] + CN(C)S(=O)(=O)c1ccc2c(c1)/C(=C/c1cc3c([nH]1)CCCC3)C(=O)N2 [SU6656] (first compound 0.08 µM, partner dose 0.4 µM) | 66.1%
Cn1nnc2c(C(N)=O)ncn2c1=O [temozolomide] + Oc1nc(-c2ccc(C(F)(F)F)cc2)nc2c1CSCC2 [XAV939] (first compound 2 µM, partner dose 2 µM) | 82.4%
